In paper PMC7029632, “Routing Nanomolar Protein Cargoes to Lipid Raft‐Mediated/Caveolar Endocytosis through a Ganglioside GM1‐Specific Recognition Tag” (Advanced Science, 2020):

System: ganglioside GM1
Assay: ITC titration with GM1:DPC 1:5 bicelles
Type: binding
Details: CFU-tagged derivatives, Figure S5

CFU-WYKYW [CFU-tagged WYKYW derivative]
n1: 0.5 | n2: 1.5
